# Results from the supplement of paper PMC8007513.
# This is one part of the list. Repeats are few or missing, and single values can be far off.
# System: Saccharomyces cerevisiae BY4743
# Assay: growth (OD600) with compound + IPBC relative to untreated control; higher = less growth inhibition
# Settings: compound concentration: 133 uM; IPBC concentration: 0.5 ug/ml; 20 h
# Method: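 NMCCC compounds (133 uM) combined with IPBC (0.5 ug/ml) against Saccharomyces cerevisiae BY4743 in YPD, 96-well plates. Growth was read as OD600 at 20 h and expressed as % of the untreated control. Single pass.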
row,SMILES,growth [%]
1,CCCN(CCC)C(=O)CN1\N=C/C2=C(C)[N](CC3=CC=CC=C3)C(=C2C1=O)C + CCCCNC(=O)OCC#CI [3-iodo-2-propynyl butylcarbamate (IPBC)],108
2,CCc1noc(CSc2nnc3ccc(S(=O)(=O)N(CC)CC)cn23)n1 + CCCCNC(=O)OCC#CI [3-iodo-2-propynyl butylcarbamate (IPBC)],109
3,CC(=O)c1c[nH]c(C(=O)OCC(=O)N2CC(=O)Nc3ccccc32)c1 + CCCCNC(=O)OCC#CI [3-iodo-2-propynyl butylcarbamate (IPBC)],89.4
4,CCC(=O)Nc1nc2ccc(CCC(=O)Nc3c(Cl)cc(OC)cc3OC)cc2s1 + CCCCNC(=O)OCC#CI [3-iodo-2-propynyl butylcarbamate (IPBC)],92.6
5,CCCCn1c(COC(=O)c2ccc(Cl)s2)nc2cc(S(N)(=O)=O)ccc21 + CCCCNC(=O)OCC#CI [3-iodo-2-propynyl butylcarbamate (IPBC)],86.8
6,CSc1nc(C)c(CCC(=O)OCc2cn3cc(Cl)ccc3n2)c(C)n1 + CCCCNC(=O)OCC#CI [3-iodo-2-propynyl butylcarbamate (IPBC)],102
7,CCOC(=O)c1ccc(N2CCN(C(=O)COc3ccccc3)CC2)nc1 + CCCCNC(=O)OCC#CI [3-iodo-2-propynyl butylcarbamate (IPBC)],102
8,Cc1ccc(S(=O)(=O)N(C)c2ccc(C(=O)Nc3ncccc3O)cc2)cc1 + CCCCNC(=O)OCC#CI [3-iodo-2-propynyl butylcarbamate (IPBC)],101
9,Cc1nc(-c2ccccc2)c(C(=O)OCC(=O)c2ccc[nH]2)s1 + CCCCNC(=O)OCC#CI [3-iodo-2-propynyl butylcarbamate (IPBC)],99.6
10,CC1CCCCC1NC(=O)c1cc(S(=O)(=O)N2CCCC2)cn1C (stereo not drawn) + CCCCNC(=O)OCC#CI [3-iodo-2-propynyl butylcarbamate (IPBC)],91.6
11,CCOC(=O)Cc1csc(SCc2cc(C)no2)n1 + CCCCNC(=O)OCC#CI [3-iodo-2-propynyl butylcarbamate (IPBC)],86.8
12,CCCc1cc(O)nc(SCC(=O)Nc2c(C)nn(-c3ccccc3)c2C)n1 + CCCCNC(=O)OCC#CI [3-iodo-2-propynyl butylcarbamate (IPBC)],99.3
13,Cc1ccc(CNc2ccc(-n3nc(C)cc3C)nn2)cc1 + CCCCNC(=O)OCC#CI [3-iodo-2-propynyl butylcarbamate (IPBC)],104
14,COc1ccc(C(=O)Nc2ccc(OC)c(Cl)c2)c(OC)n1 + CCCCNC(=O)OCC#CI [3-iodo-2-propynyl butylcarbamate (IPBC)],84.4
15,CCN(C(=O)c1cccc2c1SCCC2=O)c1cc(Cl)ccc1OC + CCCCNC(=O)OCC#CI [3-iodo-2-propynyl butylcarbamate (IPBC)],101
16,CC(Sc1nc(C(C)C)n(-c2ccccc2)n1)C(=O)N1CCNC1=O (stereo not drawn) + CCCCNC(=O)OCC#CI [3-iodo-2-propynyl butylcarbamate (IPBC)],98.7
17,Cc1nc(C)c(-c2nnc(SC(C)C(=O)NC3CCCCCC3)o2)s1 (stereo not drawn) + CCCCNC(=O)OCC#CI [3-iodo-2-propynyl butylcarbamate (IPBC)],104
18,COc1ncccc1C(=O)Nc1ccc(-n2cncn2)nc1 + CCCCNC(=O)OCC#CI [3-iodo-2-propynyl butylcarbamate (IPBC)],103

# Reformatted: entries from further up.
row | SMILES | growth [%]
6 | CSc1nc(C)c(CCC(=O)OCc2cn3cc(Cl)ccc3n2)c(C)n1 + CCCCNC(=O)OCC#CI [3-iodo-2-propynyl butylcarbamate (IPBC)] | 102
7 | CCOC(=O)c1ccc(N2CCN(C(=O)COc3ccccc3)CC2)nc1 + CCCCNC(=O)OCC#CI [3-iodo-2-propynyl butylcarbamate (IPBC)] | 102
8 | Cc1ccc(S(=O)(=O)N(C)c2ccc(C(=O)Nc3ncccc3O)cc2)cc1 + CCCCNC(=O)OCC#CI [3-iodo-2-propynyl butylcarbamate (IPBC)] | 101
9 | Cc1nc(-c2ccccc2)c(C(=O)OCC(=O)c2ccc[nH]2)s1 + CCCCNC(=O)OCC#CI [3-iodo-2-propynyl butylcarbamate (IPBC)] | 99.6
